Assay results as given in patent publication US5041570A, “Photosensitive 4,4'-diazidostilbene derivative” (priority 1988, dated 1991).

Assays:
[1] = Sensitivity by step tablet method (Kodak step tablet No.2); details: sand-blasted aluminum plate, 1-kW metal halide lamp, 20 cm, 30 seconds, developed with water
[2] = Developability with water and occurrence of swelling of coated plate; details: with water

[N-]=[N+]=Nc1ccc(C=Cc2ccc(N=[N+]=[N-])cc2S(=O)(=O)NCCOCCO)c(S(=O)(=O)NCCOCCO)c1 [Amide No. 4]
Sensitivity (Gradation scale No. of Kodak step Table No. 2) ([1]; Table 2): 11 | Developability ([2]; Table 2): Good | Swelling ([2]; Table 2): None

COCCOCCNS(=O)(=O)c1cc(N=[N+]=[N-])ccc1C=Cc1ccc(N=[N+]=[N-])cc1S(=O)(=O)NCCOCCOC [Amide No. 7]
Sensitivity (Gradation scale No. of Kodak step Table No. 2) ([1]; Table 2): 12 | Developability ([2]; Table 2): Good | Swelling ([2]; Table 2): None

CCCCN(C)S(=O)(=O)c1cc(N=[N+]=[N-])ccc1C=Cc1ccc(N=[N+]=[N-])cc1S(=O)(=O)N(C)CCCC [Amide No. 14]
Sensitivity (Gradation scale No. of Kodak step Table No. 2) ([1]; Table 4): 11 | Developability ([2]; Table 4): Good | Swelling ([2]; Table 4): None

CC(C)CNS(=O)(=O)c1cc(N=[N+]=[N-])ccc1C=Cc1ccc(N=[N+]=[N-])cc1S(=O)(=O)NCC(C)C [Amide No. 10]
Sensitivity (Gradation scale No. of Kodak step Table No. 2) ([1]; Table 4): 12 | Developability ([2]; Table 4): Good | Swelling ([2]; Table 4): None

[N-]=[N+]=Nc1ccc(C=Cc2ccc(N=[N+]=[N-])cc2S(=O)(=O)NCCO)c(S(=O)(=O)NCCO)c1 [Amide No. 2]
Sensitivity (Gradation scale No. of Kodak step Table No. 2) ([1]; Table 2): 11 | Developability ([2]; Table 2): Good | Swelling ([2]; Table 2): None

CCCCCN(CCCCC)S(=O)(=O)c1cc(N=[N+]=[N-])ccc1C=Cc1ccc(N=[N+]=[N-])cc1S(=O)(=O)N(CCCCC)CCCCC [Amide No. 15]
Sensitivity (Gradation scale No. of Kodak step Table No. 2) ([1]; Table 4): 11 | Developability ([2]; Table 4): Good | Swelling ([2]; Table 4): None

CCOCCNS(=O)(=O)c1cc(N=[N+]=[N-])ccc1C=Cc1ccc(N=[N+]=[N-])cc1S(=O)(=O)NCCOCC [Amide No. 8]
Sensitivity (Gradation scale No. of Kodak step Table No. 2) ([1]; Table 2): 13 | Developability ([2]; Table 2): Good | Swelling ([2]; Table 2): None

CCCCCCCNS(=O)(=O)c1cc(N=[N+]=[N-])ccc1C=Cc1ccc(N=[N+]=[N-])cc1S(=O)(=O)NCCCCCCC [Amide No. 11]
Sensitivity (Gradation scale No. of Kodak step Table No. 2) ([1]; Table 4): 11 | Developability ([2]; Table 4): Good | Swelling ([2]; Table 4): None

[N-]=[N+]=Nc1ccc(C=Cc2ccc(N=[N+]=[N-])cc2S(=O)(=O)[O-])c(S(=O)(=O)[O-])c1.[Na+].[Na+] [Sodium salt, sodium 4,4'-diazidostilbene-2,2'-disulfonate, reference compound]
Sensitivity (Gradation scale No. of Kodak step Table No. 2) ([1]; Table 2): 9 | Sensitivity (Gradation scale No. of Kodak step Table No. 2) ([1]; Table 4): 9 | Developability ([2]; Table 2): Good | Developability ([2]; Table 4): Good

CCCCCCCCNS(=O)(=O)c1cc(N=[N+]=[N-])ccc1C=Cc1ccc(N=[N+]=[N-])cc1S(=O)(=O)NCCCCCCCC [Amide No. 9]
Sensitivity (Gradation scale No. of Kodak step Table No. 2) ([1]; Table 4): 11 | Developability ([2]; Table 4): Good | Swelling ([2]; Table 4): None

[N-]=[N+]=Nc1ccc(C=Cc2ccc(N=[N+]=[N-])cc2S(=O)(=O)NCCCO)c(S(=O)(=O)NCCCO)c1 [Amide No. 1]
Sensitivity (Gradation scale No. of Kodak step Table No. 2) ([1]; Table 2): 13 | Developability ([2]; Table 2): Good | Swelling ([2]; Table 2): None

CCCCOS(=O)(=O)c1cc(N=[N+]=[N-])ccc1C=Cc1ccc(N=[N+]=[N-])cc1S(=O)(=O)OCCCC [Ester C, reference compound]
Sensitivity (Gradation scale No. of Kodak step Table No. 2) ([1]; Table 4): 10 | Swelling ([2]; Table 4): None

CC(CCO)NS(=O)(=O)c1cc(N=[N+]=[N-])ccc1C=Cc1ccc(N=[N+]=[N-])cc1S(=O)(=O)NC(C)CCO (centres unmarked) [Amide No. 3]
Sensitivity (Gradation scale No. of Kodak step Table No. 2) ([1]; Table 2): 12 | Developability ([2]; Table 2): Good | Swelling ([2]; Table 2): None

CCOCCOS(=O)(=O)c1cc(N=[N+]=[N-])ccc1C=Cc1ccc(N=[N+]=[N-])cc1S(=O)(=O)OCCOCC [Ester B, reference compound]
Sensitivity (Gradation scale No. of Kodak step Table No. 2) ([1]; Table 2): 10 | Swelling ([2]; Table 2): None
